# From the supplement of paper PMC12889115
# The list shows a part of the results. Values are raw readings; no control value is given beside them.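 First-pass screen: polymyxin B was added at a level that permeabilizes the Salmonella outer membrane while sparing the inner membrane. DMSO wells, with and without polymyxin B, defined maximum growth. Because plates differed from one another, each plate's data were ranked separately and the compounds with the lowest OD600 were carried forward as hits.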
# Tested on: Salmonella enterica serovar Typhimurium SL1344
# Experiment: bacterial growth OD600 after 18 h with compound and polymyxin B; higher = more bacterial growth (less inhibition)
# Settings: 50 µM, Mueller-Hinton broth
Compound,bacterial growth OD600 (polymyxin B 1 µg/mL),bacterial growth OD600 (polymyxin B 0.75 µg/mL)
CCN(CC1CCCO1)C(=O)c1csc2nc(-c3ccccc3F)cn12 (stereo unspecified),0.832,
COc1cc(Cl)ccc1OCc1cc(C(=O)N(C)C2CC(C)(C)NC(C)(C)C2)no1,0.88,
CCCC1(C2CCN(C(=O)CSc3ccccc3)CC2)NC(=O)N(CCc2ccccn2)C1=O (stereo unspecified),,0.803
CC1CCN(Cc2nnnn2CC(=O)NCCc2cn3ccccc3n2)CC1,,0.849
CC(=O)N[C@@H](CC(C)C)C(=O)N1CCCC(c2[nH]ncc2-c2ccc(F)c(F)c2)C1 (stereo partly specified),,1.01
Cc1oc(-c2ccc(NC(=O)Cc3ccccc3)cc2)nc1CNC(=O)Cn1cnc2ccccc21,,0.781
c1ccc(Oc2ncccc2CNCc2ccc3c(c2)OCCO3)cc1,,0.799
O=C(NCc1cccc(C(F)(F)F)c1)C1CC12CCN(Cc1ccoc1)CC2 (stereo unspecified),,0.876
CC1CN(CC(=O)N2CCC(c3ccncc3)CC2)Cc2cc(Cl)ccc2O1 (stereo unspecified),,0.756
Cc1c(CNC2CCCN(CC3CCCCC3)C2)c(=O)n(-c2ccccc2)n1C (stereo unspecified),0.452,
CCOc1cc(CN2CCCC(c3nc(-c4ccncc4)ncc3-c3ccccc3)C2)ccc1OC (stereo unspecified),,0.798
Cc1nc[nH]c1CN1CCCC1C(=O)Nc1cccc(-c2ccc(F)cc2)c1 (stereo unspecified),,0.804
CN(CCOc1ccccc1)C(=O)c1ccc(OC2CCN(C(=O)C3CC3)CC2)cc1,0.896,
Cc1nc(N2CCC(NCc3cccc(F)c3F)CC2)nc2cc(S(C)(=O)=O)ccc12,,0.812
Cn1cc(CN2CCC(n3nccc3NC(=O)Nc3cccc(F)c3)CC2)cn1,,0.771
CCOC(=O)CN(C)C(=O)C1CCC(=O)N(C2CCCCCC2)C1 (stereo unspecified),0.861,

Compound,bacterial growth OD600 (polymyxin B 1 µg/mL),bacterial growth OD600 (polymyxin B 0.75 µg/mL)
CSc1ccccc1C(=O)NCc1c(C)ncc2c1CCN(C(=O)[C@H](CC(C)C)NC(C)=O)C2,,0.997
O=C(CCCn1cncn1)N1CCOc2ccc(C(O)C(c3ccccc3)c3ccccc3)cc2C1 (stereo unspecified),,0.869
CCOC(=O)C1(Cc2ccccc2C)CCCN(C(=O)Nc2ccc(OC)cc2)C1 (stereo unspecified),0.815,
c1ccc(-n2ncc3c2CCCC3NCc2cccc3ncccc23)nc1 (stereo unspecified),,0.802
Cc1ccc(CNC(=O)c2cc(COc3cccc(F)c3)[nH]n2)o1,,0.855
COCCCN1C(=O)CC(CC(=O)N2CCN(c3ccccc3C)CC2)(c2ccccc2OC)C1=O (stereo unspecified),,0.011
O=C(Nc1cccc(-n2cccn2)c1)C1CCCN(Cc2ccc3c(c2)OCCO3)C1 (stereo unspecified),0.747,
O=C(c1cccs1)N1CCc2[nH]nc(-c3cccc(F)c3)c2C1,,0
CSCCC(=O)NC1CC(=O)N(Cc2ccccc2C(F)(F)F)C1 (stereo unspecified),0.941,
COc1ccc(C(=O)Nc2ccnn2C2CCN(C(=O)c3cnc(C)cn3)CC2)cc1,1.11,
Cc1cc(-c2cc(F)cc3c2OC(CNC(=O)C[C@@H]2C[C@@H](C)NC(=S)N2)C3)ccc1F (stereo partly specified),,0.83
COc1cc(OC)cc([C@@H]2C[C@H]3CN(Cc4cccc(Cl)c4)C(=O)[C@]34CCCN24)c1,0.008,
COc1ccc(OCC2CCCN(C(=O)c3cn(C4CCCCC4)nn3)C2)cc1 (stereo unspecified),0.248,
CN(C)C1CCN(C(=O)c2csc3nc(-c4cccc(C(F)(F)F)c4)cn23)C1 (stereo unspecified),1.17,
CCN(Cc1cnn(C)c1)CC1CCCN(CCc2cccc(OC)c2)C1 (stereo unspecified),0.835,
